Measured values as given in publication PMC9574515.
Like-named read-outs stand apart in the source and are kept apart here. No constants are given. Whether binding was seen depends on the method and setting. Binding seen in cells or lysates may run through a third protein. Some entries that bind do so weakly or less than the wild type. For some assays here: Sequences can lack the tags named with a protein. Blank lines part the entries; values can stand above or below the molecule they belong to.

Chains of the proteins cited; added tags and fusions are not shown. Lines headed by an entry give the natural chain unless they say otherwise; changes in a name come on top. A line that says so, or that is headed by a name, gives the form on record, which may keep a tag or linker.
UniProt Q9UNE7: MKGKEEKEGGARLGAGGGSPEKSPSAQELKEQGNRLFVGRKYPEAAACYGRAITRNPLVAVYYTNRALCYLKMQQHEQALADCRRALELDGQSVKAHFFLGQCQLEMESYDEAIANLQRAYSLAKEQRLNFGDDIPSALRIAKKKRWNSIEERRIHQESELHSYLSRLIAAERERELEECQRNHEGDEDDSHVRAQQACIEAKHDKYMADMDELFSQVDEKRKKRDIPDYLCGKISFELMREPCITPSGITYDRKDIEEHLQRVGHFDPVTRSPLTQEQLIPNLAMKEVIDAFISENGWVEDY
STUB1 ΔTPR-V5 (human (from the RefSeq entry NM_005861.3 and the capital gene symbol)) (Q9UNE7, form named): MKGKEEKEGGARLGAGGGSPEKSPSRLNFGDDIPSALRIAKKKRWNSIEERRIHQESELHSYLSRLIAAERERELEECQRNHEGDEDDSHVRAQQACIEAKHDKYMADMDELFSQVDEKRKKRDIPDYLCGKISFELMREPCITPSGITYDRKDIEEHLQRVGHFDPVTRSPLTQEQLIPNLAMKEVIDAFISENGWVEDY
UniProt Q9WUD1: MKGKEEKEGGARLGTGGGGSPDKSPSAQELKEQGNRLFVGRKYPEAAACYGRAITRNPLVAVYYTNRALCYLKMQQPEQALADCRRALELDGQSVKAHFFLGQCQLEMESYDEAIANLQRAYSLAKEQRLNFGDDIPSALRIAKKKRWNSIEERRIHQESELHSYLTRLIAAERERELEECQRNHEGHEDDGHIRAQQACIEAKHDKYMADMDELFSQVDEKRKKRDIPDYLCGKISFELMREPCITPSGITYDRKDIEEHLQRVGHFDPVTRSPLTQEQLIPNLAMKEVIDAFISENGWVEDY

Columns and labels:
Test in all cases: co-IP; anti-V5 tag magnetic beads on 1 to 2 mg of 32D Cas9 cell lysate (150 mM NaCl, 50 mM Tris pH 7.5, 1% NP40), overnight at 4 °C, Western blot; cells cultured in 0.01 ng/ml IL-3 (also 5 and 0.1 ng/ml IL-3; Ruxolitinib 100 nM for 2 h; sgNT or sgChic2-1/2)
[1] = target: STUB1 ΔTPR-V5 (human (from the RefSeq entry NM_005861.3 and the capital gene symbol)) (UniProt Q9UNE7)
[2] = target: STUB1-V5 (human (from the RefSeq entry NM_005861.3 and the capital gene symbol)) (UniProt Q9UNE7)
[3] = target: T1, V5-CHIC2 ΔIFRPD (human (from the RefSeq entry NM_012110.3 and the capital gene symbol)) (UniProt Q9UKJ5)
T1 sequence: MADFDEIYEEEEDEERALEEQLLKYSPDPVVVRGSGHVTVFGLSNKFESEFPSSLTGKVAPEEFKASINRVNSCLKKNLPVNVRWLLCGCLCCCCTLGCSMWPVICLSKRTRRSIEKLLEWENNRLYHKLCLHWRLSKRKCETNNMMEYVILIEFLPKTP

[4] = target: V5-CHIC2 (human (from the RefSeq entry NM_012110.3 and the capital gene symbol)) (UniProt Q9UKJ5)
[5] = target: T1, V5-CHIC2 ΔIFRPD (human (from the RefSeq entry NM_012110.3 and the capital gene symbol)); remark: listed apart in the source
[6] = target: STUB1 ΔTPR-V5 (human (from the RefSeq entry NM_005861.3 and the capital gene symbol)) (UniProt Q9UNE7); remark: listed apart in the source
[7] = target: V5-CHIC2 (human (from the RefSeq entry NM_012110.3 and the capital gene symbol)) (UniProt Q9UKJ5); remark: listed apart in the source
[8] = target: STUB1-V5 (human (from the RefSeq entry NM_005861.3 and the capital gene symbol)) (UniProt Q9UNE7); remark: listed apart in the source

- binding [1]: no binding
- binding [2]: binds
Molecule: endogenous Chic2 (from UniProt Q9D9G3 1-165)

- binding [3]: no binding
- binding [4]: binds
Molecule: endogenous Stub1 (from UniProt Q9WUD1 1-304) (enzyme)

- binding [5]: binds
- binding [6]: no binding
- binding [7]: binds
- binding [8]: binds
B1: endogenous Csf2rb (receptor, UniProt P26955 23-896)
chain: HGVTEAEETVPLKTLQCYNDYTNHIICSWADTEDAQGLINMTLYHQLEKKQPVSCELSEELMWSECPSSHRCVPRRCVIPYTRFSITNEDYYSFRPDSDLGIQLMVPLAQNVQPPLPKNVSISSSEDRFLLEWSVSLGDAQVSWLSSKDIEFEVAYKRLQDSWEDAYSLHTSKFQVNFEPKLFLPNSIYAARVRTRLSPGSSLSGRPSRWSPEVHWDSQPGDKAQPQNLQCFFDGIQSLHCSWEVWTQTTGSVSFGLFYRPSPVAPEEKCSPVVKEPPGASVYTRYHCSLPVPEPSAHSQYTVSVKHLEQGKFIMSYNHIQMEPPTLNLTKNRDSYSLHWETQKMAYSFIEHTFQVQYKKKSDSWEDSKTENLDRAHSMDLSQLEPDTSYCARVRVKPISNYDGIWSKWSEEYTWKTDWVMPTLWIVLILVFLILTLLLILRFGCVSVYRTYRKWKEKIPNPSKSLLFQDGGKGLWPPGSMAAFATKNPALQGPQSRLLAEQQGESYAHLEDNNVSPLTIEDPNIIRVPPSGPDTTPAASSESTEQLPNVQVEGPTPNRPRKQLPSFDFNGPYLGPPQSHSLPDLPDQLGSPQVGGSLKPALPGSLEYMCLPPGGQAQLVPLSQVMGQGQAMDVQCGSSLETSGSPSVEPKENPPVELSMEEQEARDNPVTLPISSGGPEGSMMASDYVTPGDPVLTLPTGPLSTSLGPSLGLPSAQSPSLCLKLPRVPSGSPALGPPGFEDYVELPPSVSQAAKSPPGHPAPPVASSPTVIPGEPREEVGPASPHPEGLLVLQQVGDYCFLPGLGPGSLSPHSKPPSPSLCSETEDLVQDLSVKKFPYQPMPQAPAIQFFKSLKHQDYLSLPPWDNSQSGKVC
